The list is a part of this screen's results and no random one: it gathers tests that were run many times, whatever their T/C, doses with no T/C, and many T/C values between a quarter and a half above the control. Further doses and runs are listed elsewhere. T/C: endpoint of the treated group in % of that of the vehicle group. Some entries give survivors of the animals treated and no T/C: the source holds a T/C of zero for them, seemingly a mark for toxic or unscored doses. Some doses without a T/C left all or most animals alive at the check, yet need not have been tolerated: the source hardly ever lists a survival T/C far under the control, and the zero likely stands for such cases as well. Survivors were counted at the toxicity check, usually on the fifth day, unless a day is given; later deaths do not show. Schedule codes are those of the source, taken here to give the interval after Q, in days (D) or hours (H), and the number of doses after X. Some structures stand for samples that the source files as different forms (salt, stereo form or complex); doses refer to the form tested. Some doses were run more than once; the values are given in rising order. For survival time, the PubChem record calls one and a half times the control and up active, and a quarter to a half above the control has no call in these data; cut-offs in other NCI protocols can differ. Counts like (3×) give the number of equal values in this list. Some T/C values are followed by the survivors on the day toxicity was checked, most often the fifth; where none is given, no animal had died by that day.
System: CD2F1 mice, L1210 leukemia ip, survival T/C
Assay: NCI In Vivo Anticancer Drug Screen. Data for tumor model L1210 Leukemia (intraperitoneal) in CD2F1 (CDF1) mice
Conditions: higher T/C = longer survival
Procedure, shortened: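 Compound-dosed mice with transplantable tumor versus matched vehicle controls; endpoint ratio T/C reported.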

[1] = T/C endpoint: mean survival time, dose: 200.0 mg/kg/injection, schedule: Q01DX009 (ip), vehicle: saline
[2] = T/C endpoint: mean survival time, dose: 200.0 mg/kg/injection, schedule: Q04DX003 (ip), vehicle: saline
[3] = T/C endpoint: mean survival time, dose: 50.0 mg/kg/injection, schedule: Q04DX003 (ip), vehicle: saline
[4] = T/C endpoint: mean survival time, dose: 100.0 mg/kg/injection, schedule: Q04DX003 (ip), vehicle: saline
[5] = T/C endpoint: mean survival time, dose: 100.0 mg/kg/injection, schedule: Q04DX002 (ip), vehicle: saline with Tween-80
[6] = T/C endpoint: mean survival time, dose: 200.0 mg/kg/injection, schedule: Q04DX002 (ip), vehicle: saline with Tween-80
[7] = T/C endpoint: mean survival time, dose: 400.0 mg/kg/injection, schedule: Q04DX002 (ip), vehicle: saline with Tween-80
[8] = T/C endpoint: mean survival time, dose: 100.0 mg/kg/injection, schedule: Q01DX009 (ip), vehicle: saline with Tween-80
[9] = T/C endpoint: mean survival time, dose: 200.0 mg/kg/injection, schedule: Q04DX003 (ip), vehicle: saline with Tween-80
[10] = T/C endpoint: mean survival time, dose: 400.0 mg/kg/injection, schedule: Q04DX003 (ip), vehicle: saline with Tween-80
[11] = T/C endpoint: mean survival time, dose: 400.0 mg/kg/injection, schedule: Q04DX003 (ip), vehicle: saline

SMILES: CC(C)CC(C)COC(=O)c1c(Cl)c(Cl)c(Cl)c(Cl)c1C(=O)O (stereo unspecified)
- survivor count (T/C endpoint: mean survival time, dose: 400.0 mg/kg/injection, schedule: Q01DX001 (ip), vehicle: saline): 0 of 6

SMILES: O=CC(CO)CC(C=O)n1cnc2c(=O)[nH]cnc21 (stereo unspecified)
- T/C (T/C endpoint: mean survival time, dose: 89.0 mg/kg/injection, schedule: Q04DX003 (ip), vehicle: saline): 125 % of control
- T/C (T/C endpoint: mean survival time, dose: 133.0 mg/kg/injection, schedule: Q01DX009 (ip), vehicle: saline): 136 % of control
- T/C (T/C endpoint: mean survival time, dose: 133.0 mg/kg/injection, schedule: Q04DX003 (ip), vehicle: saline): 131 % of control
- T/C [1]: 141 % of control
- T/C [2]: 141 % of control
- T/C (T/C endpoint: median survival time, dose: 37.0 mg/kg/injection, schedule: Q01DX009 (ip), vehicle: saline): 133 % of control
- T/C (T/C endpoint: median survival time, dose: 37.5 mg/kg/injection, schedule: Q01DX009 (ip), vehicle: saline): 125 % of control
- T/C (T/C endpoint: median survival time, dose: 75.0 mg/kg/injection, schedule: Q01DX009 (ip), vehicle: saline): 108, 131, 133, 148 % of control
- T/C (T/C endpoint: median survival time, dose: 150.0 mg/kg/injection, schedule: Q01DX009 (ip), vehicle: saline): 124, 150 (2×), 154 % of control
- T/C (T/C endpoint: median survival time, dose: 300.0 mg/kg/injection, schedule: Q01DX009 (ip), vehicle: saline): 127, 170, 172, 222 % of control
- survivor count (T/C endpoint: median survival time, dose: 600.0 mg/kg/injection, schedule: Q01DX009 (ip), vehicle: saline): 0 of 6, 2 of 6, 3 of 6, 5 of 6

SMILES: NNc1ncnc2nncnc12
- survivor count (T/C endpoint: mean survival time, dose: 75.0 mg/kg/injection, schedule: Q01DX001 (ip), vehicle: other): 2 of 6
- survivor count (T/C endpoint: mean survival time, dose: 150.0 mg/kg/injection, schedule: Q01DX001 (ip), vehicle: other): 1 of 6
- survivor count (T/C endpoint: mean survival time, dose: 300.0 mg/kg/injection, schedule: Q01DX001 (ip), vehicle: other): 0 of 6

SMILES: CCN(CC)Cc1cc([N+](=O)[O-])ccc1O
- survivor count (T/C endpoint: mean survival time, dose: 300.0 mg/kg/injection, schedule: Q01DX001 (ip), vehicle: saline): 1 of 6

SMILES: c1ccc(CCN2CCCCC2)nc1
- survivor count (T/C endpoint: mean survival time, dose: 12.5 mg/kg/injection, schedule: Q04DX003 (ip), vehicle: saline with Tween-80): 0 of 6
- survivor count (T/C endpoint: mean survival time, dose: 25.0 mg/kg/injection, schedule: Q04DX003 (ip), vehicle: saline): 5 of 6
- survivor count [3]: 0 of 6
- survivor count [4]: 0 of 6

SMILES: COCc1nnc2ncnc(N)c2n1
- survivor count (T/C endpoint: mean survival time, dose: 100.0 mg/kg/injection, schedule: Q01DX001 (ip), vehicle: carboxymethylcellulose (CMC)): 1 of 6
- survivor count (T/C endpoint: mean survival time, dose: 200.0 mg/kg/injection, schedule: Q01DX001 (ip), vehicle: carboxymethylcellulose (CMC)): 0 of 6
- survivor count (T/C endpoint: mean survival time, dose: 400.0 mg/kg/injection, schedule: Q01DX001 (ip), vehicle: carboxymethylcellulose (CMC)): 0 of 6

SMILES: [CH3][Sn]1([CH3])[O]C2C(CO)OC(n3ccc(=O)[nH]c3=O)C2[O]1 (stereo unspecified)
- survivor count (T/C endpoint: mean survival time, dose: 100.0 mg/kg/injection, schedule: Q01DX005 (ip), vehicle: other): 0 of 6
- survivor count (T/C endpoint: mean survival time, dose: 200.0 mg/kg/injection, schedule: Q01DX005 (ip), vehicle: other): 0 of 6

SMILES: CC(C)(O)/C=C/C(=O)[C@](C)(O)[C@H]1[C@H](O)C[C@@]2(C)[C@@H]3CC=C4[C@@H](C=C(O)C(=O)C4(C)C)[C@]3(C)C(=O)C[C@]12C
- survivor count (T/C endpoint: median survival time, dose: 2.0 mg/kg/injection, schedule: Q01DX005 (ip), vehicle: water): 0 of 6
- survivor count (T/C endpoint: median survival time, dose: 4.0 mg/kg/injection, schedule: Q01DX005 (ip), vehicle: water): 0 of 6
- survivor count (T/C endpoint: median survival time, dose: 8.0 mg/kg/injection, schedule: Q01DX005 (ip), vehicle: water): 0 of 6

SMILES: COc1ccc(/C=C(\C)[N+](=O)[O-])cc1OC
- survivor count (T/C endpoint: mean survival time, dose: 100.0 mg/kg/injection, schedule: Q01DX009 (ip), vehicle: water): 5 of 6
- survivor count (T/C endpoint: mean survival time, dose: 200.0 mg/kg/injection, schedule: Q01DX009 (ip), vehicle: water): 3 of 6

SMILES: NC(=S)N/N=C/c1ccc(C(F)(F)F)cn1
- T/C (T/C endpoint: mean survival time, dose: 30.0 mg/kg/injection, schedule: Q01DX009 (ip), vehicle: saline with Tween-80): 137 % of control
- survivor count (T/C endpoint: mean survival time, dose: 45.0 mg/kg/injection, schedule: Q01DX009 (ip), vehicle: Klucel (hydroxypropylcellulose) (HPC)): 1 of 6
- T/C (T/C endpoint: mean survival time, dose: 50.0 mg/kg/injection, schedule: Q04DX002 (ip), vehicle: saline with Tween-80): 143 % of control
- survivor count (T/C endpoint: mean survival time, dose: 67.5 mg/kg/injection, schedule: Q01DX009 (ip), vehicle: Klucel (hydroxypropylcellulose) (HPC)): 0 of 6
- survivor count (T/C endpoint: mean survival time, dose: 67.5 mg/kg/injection, schedule: Q01DX009 (ip), vehicle: saline with Tween-80): 3 of 10
- T/C [5]: 149 % of control
- survivor count [5]: 1 of 3
- survivor count [6]: 0 of 3
- survivor count [7]: 0 of 3

SMILES: CC1=CC(=O)C(Sc2ccc(C)cc2)=CC1=O
- survivor count [8]: 2 of 6
- survivor count (T/C endpoint: mean survival time, dose: 200.0 mg/kg/injection, schedule: Q01DX009 (ip), vehicle: saline with Tween-80): 2 of 6

SMILES: CCOC(=O)c1c(OC)cc2n(c1=O)Cc1cc3ccccc3nc1-2
- survivor count [9]: 5 of 6
- survivor count [10]: 6 of 6

SMILES: COc1ccc2c(c1)N(CCC1CCCCN1C)c1ccccc1S2 (stereo unspecified)
- T/C [3]: 132 % of control

SMILES: COc1ccc2c(Nc3ccc(NS(C)(=O)=O)cc3)c3ccccc3nc2c1
- T/C (T/C endpoint: mean survival time, dose: 67.0 mg/kg/injection, schedule: Q04DX003 (ip), vehicle: saline with Tween-80): 132 % of control
- survivor count [8]: 3 of 6
- T/C [4]: 130 % of control
- survivor count [2]: 6 of 6
- survivor count [11]: 2 of 6

SMILES: O=C(Nc1ccc(OCC2=NCCN2)cc1)c1ccc(C(=O)Nc2ccc(OCC3=NCCN3)cc2)cc1
- survivor count (T/C endpoint: median survival time, dose: 100.0 mg/kg/injection, schedule: Q01DX009 (ip), vehicle: saline with Tween-80): 2 of 6
- survivor count (T/C endpoint: median survival time, dose: 200.0 mg/kg/injection, schedule: Q01DX009 (ip), vehicle: saline with Tween-80): 0 of 6
- survivor count (T/C endpoint: median survival time, dose: 400.0 mg/kg/injection, schedule: Q01DX009 (ip), vehicle: saline with Tween-80): 0 of 6

SMILES: O=C(CN1CC1)NCCCCCCCCNC(=O)CN1CC1
- T/C (T/C endpoint: mean survival time, dose: 10.0 mg/kg/injection, schedule: Q01DX009 (ip), vehicle: carboxymethylcellulose (CMC)): 128 % of control
- T/C (T/C endpoint: mean survival time, dose: 15.0 mg/kg/injection, schedule: Q01DX009 (ip), vehicle: carboxymethylcellulose (CMC)): 148 % of control
- T/C (T/C endpoint: mean survival time, dose: 50.0 mg/kg/injection, schedule: Q01DX001 (ip), vehicle: carboxymethylcellulose (CMC)): 134 % of control
- T/C (T/C endpoint: mean survival time, dose: 75.0 mg/kg/injection, schedule: Q01DX001 (ip), vehicle: carboxymethylcellulose (CMC)): 136 % of control [5 of 6 alive]

SMILES: CN(C)NCc1ccccc1
- survivor count [1]: 3 of 3
- survivor count (T/C endpoint: mean survival time, dose: 400.0 mg/kg/injection, schedule: Q01DX009 (ip), vehicle: saline): 0 of 3

SMILES: CCOC(=O)C(CCC(O)C#N)(NC(C)=O)C(=O)OCC (stereo unspecified)
- survivor count [5]: 0 of 3
- survivor count [6]: 0 of 3
- survivor count [7]: 0 of 3

SMILES: CC1(C)N=C(N)N=C(N)N1c1ccc(CCc2ccccc2)cc1
- survivor count (T/C endpoint: mean survival time, dose: 50.0 mg/kg/injection, schedule: Q01DX009 (ip), vehicle: saline with Tween-80): 3 of 6
- survivor count (T/C endpoint: mean survival time, dose: 100.0 mg/kg/injection, schedule: Q04DX003 (ip), vehicle: saline with Tween-80): 5 of 6
- survivor count [9]: 0 of 6
- survivor count [10]: 0 of 6

SMILES: CCOC(=O)N1C(=O)C2C3CCC(O3)C2C1=O (stereo unspecified)
- survivor count [5]: 0 of 3
- survivor count [6]: 0 of 3
- survivor count [7]: 0 of 3

SMILES: C=C(CC(=O)O)C(=O)O
- survivor count [10]: 0 of 6

SMILES: Cc1ccc(N)c(Br)c1
- survivor count [2]: 0 of 3
- survivor count [10]: 2 of 6
- survivor count [11]: 0 of 3

SMILES: O=C(CCl)Nc1ccc(Cl)cc1
- survivor count (T/C endpoint: mean survival time, dose: 100.0 mg/kg/injection, schedule: Q01DX009 (ip), vehicle: Klucel (hydroxypropylcellulose) (HPC)): 3 of 6
- survivor count (T/C endpoint: mean survival time, dose: 200.0 mg/kg/injection, schedule: Q04DX003 (ip), vehicle: Klucel (hydroxypropylcellulose) (HPC)): 0 of 6
- survivor count [9]: 1 of 6
- survivor count [10]: 0 of 6

Source: PubChem BioAssay AID256 (DTP/NCI, 2004)
